Test results as given in PubChem BioAssay AID588590 (National Center for Advancing Translational Sciences (NCATS), 2011).
Several values for one entry are separate records, joined by “and”; a condition that tells them apart may be missing. Equal entries are not always repeated. In all, about 390,000 compounds went through this assay and about 4,000 (1%) were called active. The shares of active, inactive and inconclusive entries below differ from those in the screen. Calls follow the shape of the dose curve; as a rule, active = well fitted inhibition curve with a large enough effect; inconclusive = small, poorly fitted or top-dose-only effect, or another doubt; inactive = no such curve, though single readings can be large or run the other way. A potency beside an inconclusive call is a rough fit, not a confirmed value.

Sequences of proteins named here, by UniProt entry; tags and fusion partners are left off. A change or cut given only in a name is not applied to a line headed by its entry.
UniProt Q9UNA4: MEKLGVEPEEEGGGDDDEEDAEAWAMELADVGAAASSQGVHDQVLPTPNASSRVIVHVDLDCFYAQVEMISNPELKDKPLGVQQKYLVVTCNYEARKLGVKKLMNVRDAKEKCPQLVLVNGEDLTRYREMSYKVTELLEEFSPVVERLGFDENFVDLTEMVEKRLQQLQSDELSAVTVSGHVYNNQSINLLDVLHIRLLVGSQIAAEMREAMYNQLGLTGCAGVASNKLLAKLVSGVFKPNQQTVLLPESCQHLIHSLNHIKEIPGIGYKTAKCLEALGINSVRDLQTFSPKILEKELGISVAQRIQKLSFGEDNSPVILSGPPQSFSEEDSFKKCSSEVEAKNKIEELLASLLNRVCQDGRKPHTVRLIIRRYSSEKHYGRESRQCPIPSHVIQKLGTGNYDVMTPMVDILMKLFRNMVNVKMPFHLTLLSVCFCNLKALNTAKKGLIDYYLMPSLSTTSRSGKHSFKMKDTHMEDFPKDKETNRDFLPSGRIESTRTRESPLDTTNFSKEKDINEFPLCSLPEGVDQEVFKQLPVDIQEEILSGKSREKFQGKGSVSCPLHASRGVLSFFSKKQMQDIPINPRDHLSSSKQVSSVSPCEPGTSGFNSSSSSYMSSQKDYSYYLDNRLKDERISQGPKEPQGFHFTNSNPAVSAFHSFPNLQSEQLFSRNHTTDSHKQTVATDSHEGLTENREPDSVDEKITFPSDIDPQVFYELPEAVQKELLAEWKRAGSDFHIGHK

Biological target: DNA polymerase iota (Homo sapiens) (UniProt Q9UNA4)
Assay: qHTS for Inhibitors of Polymerase Iota
Conditions: Pol iota fluorescent replication assay, 10 min; series mostly up to 115 µM
Method in brief: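 Pol iota at 10 nM preincubated 15 min with compounds at room temperature; reaction started with fluorescent substrate, 50 nM final. Fluorescence read kinetically at 0 and 10 min; buffer-only wells as negative control.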
Potency is read from the fitted curve at half-maximal effect.

Structure (SMILES)	Potency
CCOC(=O)C1=C(CS(=O)(=O)c2ccc(C)c(C)c2)NC(=O)NC1c1ccc(O)cc1 (stereo not given)	inactive
CCN1CCN(Cc2ccc(NC(=O)c3ccc(C)c(NC(=O)c4cccc(-c5cn[nH]c(=O)c5)c4)c3)cc2C(F)(F)F)CC1	inconclusive: 15.8 µM [inhibitor, partial curve, poor fit]
Cc1csc(NC(=O)c2cc3c(s2)CCCC3)n1	inconclusive: 79.4 µM [inhibitor, single point]
CC(=O)O/N=C/c1c(C)c(C=O)n2ccccc12	inconclusive: 31.6 µM [inhibitor, partial curve]
Cc1cc(Nc2ccc(C)c(Cl)c2)n2nc(Cc3ccccc3)nc2n1	inconclusive: 100 µM [inhibitor, single point]
Oc1ccc(/C=N/Nc2ccnc3cc(Cl)ccc23)cc1O	inconclusive: 7.08 µM [inhibitor, partial curve]
Cc1ccc(S(=O)(=O)CC2CSc3nnc(C)c(=O)n32)cc1 (stereo not given)	inconclusive: 112 µM [inhibitor, single point]
O=C(CSc1ccc(-c2nc3ccccc3[nH]2)cn1)Nc1ccc(S(=O)(=O)NC2CC2)cc1	inconclusive: 15.8 µM [inhibitor, partial curve]
CCOc1ccc(NC(=O)CSc2nc(-c3ccc(OC)cc3)nc3c2Cc2c(CO)cnc(C)c2O3)cc1	inconclusive: 89.1 µM [inhibitor, single point]
O=C(N/N=C/c1ccco1)C1CC1(c1ccccc1)c1ccccc1 (stereo not given)	inconclusive: 50.1 µM [inhibitor, partial curve, poor fit]
O=C(Nc1ccncc1)c1ccc(-c2ccccc2)cc1	inconclusive: 56.2 µM [inhibitor, partial curve, poor fit]
COc1cc(CN(CC2CCCO2)C(=O)c2ccco2)cc(OC)c1OC (stereo not given)	inconclusive: 39.8 µM [inhibitor, partial curve, poor fit]
O=C(NCCO)c1ccc2[nH]c3c(c2c1)CCCC3	inactive
CCc1c(C)sc(NC(=O)c2cc(-c3ccco3)on2)c1C#N	inconclusive: 31.6 µM [inhibitor, full curve]
CCOC(=O)c1cc(S(=O)(=O)NCc2ccccc2)[nH]n1	inactive
Cn1c(SCC(=O)N/N=C/c2ccc([N+](=O)[O-])s2)nnc1-c1ccc(Cl)cc1	inactive
CC(C)NC(=O)NC(=O)COC(=O)c1cccc(OC(F)F)c1	inactive
CC(C)(C)C(CO)NC(=O)c1ccc[nH]1 (stereo not given)	inconclusive: 89.1 µM [inhibitor, single point]
COc1ccc(S(=O)(=O)N2CCN(C(=O)CCCN3C(=O)NC4(CCCC4)C3=O)CC2)cc1	inactive
Cc1ccc(/C=C2\SC(=S)N(NS(=O)(=O)c3ccc(C)cc3)C2=O)cc1	inactive
O=C(COc1ccc2ccccc2c1)Nc1cccnc1Cl	inconclusive: 56.2 µM [inhibitor, partial curve, poor fit]
Cc1ccc(C2(C)NC(=O)N(CC(=O)Nc3nc(-c4ccccn4)cs3)C2=O)cc1 (stereo not given)	inconclusive: 15.8 µM [inhibitor, partial curve, poor fit]

A draw from above in order of formula weight, ascending:
Structure (SMILES)	Potency
CCc1c(C)sc(NC(=O)c2cc(-c3ccco3)on2)c1C#N	inconclusive: 31.6 µM [inhibitor, full curve]
Cc1cc(Nc2ccc(C)c(Cl)c2)n2nc(Cc3ccccc3)nc2n1	inconclusive: 100 µM [inhibitor, single point]
O=C(CSc1ccc(-c2nc3ccccc3[nH]2)cn1)Nc1ccc(S(=O)(=O)NC2CC2)cc1	inconclusive: 15.8 µM [inhibitor, partial curve]

(further entries)

Structure (SMILES)	Potency
CN1CCN/C1=C(/C(Cl)=C(Cl)Cl)[N+](=O)[O-]	inconclusive: 17.8 µM [inhibitor, partial curve]
O=c1cc(O)c2c(=O)n(-c3ccccc3)c3ccccc3c2o1	inactive
CCOc1ccccc1N(CC(=O)NCCSCc1ccco1)S(=O)(=O)c1ccccc1	inconclusive: 39.8 µM [inhibitor, partial curve]
O=C(O)C1Cc2ccccc2CN1C(=O)CCl (stereo not given)	inactive
COc1ccc(C(=O)OCc2cc(=O)n3nc(-c4cccs4)sc3n2)cc1	inconclusive: 89.1 µM [inhibitor, single point]
Cc1ccc(S(=O)(=O)Cc2ccc(C(=O)N3CCN(c4cccc(C)c4C)CC3)o2)cc1	inconclusive: 89.1 µM [inhibitor, single point] and inconclusive: 79.4 µM [inhibitor, single point]
N#Cc1ccsc1NC(=O)CN1CCCCC1	inactive
O=C(CNc1cccc2ccccc12)N/N=C/c1cccc(Oc2ccccc2)c1	inconclusive: 28.2 µM [inhibitor, single point]
CCOC(=O)CC1(NC(=O)c2cc(COc3c(F)cccc3F)on2)CCCCC1	inconclusive: 79.4 µM [inhibitor, partial curve]
Cc1ccc(NC(=O)CN(C)C(=O)c2cccc(S(=O)(=O)NCc3ccccc3)c2)cc1	inactive
O=C(O)c1ccc(CNCc2ccc(Cl)cc2)s1	inactive
Nc1nc(Nc2ccc(Cl)cc2)c(NC=O)c(=O)[nH]1	inconclusive: 7.94 µM [inhibitor, full curve, poor fit]
O=C(O)c1cccc(-c2ccc(/C=N/NC(=O)C3COc4ccccc4O3)o2)c1 (stereo not given)	inconclusive: 12.6 µM [inhibitor, full curve, poor fit]
CN(CC(=O)Nc1ccccc1Cl)C(=O)Cn1cc(C(F)(F)F)ccc1=O	inconclusive: 70.8 µM [inhibitor, single point]
C#CCOCCOCCOCCNc1nc(N2CCN(C(=O)[C@H](CCCCN)n3cc(CC(C)O)nn3)CC2)nc(N2CCN(C(=O)[C@H](CCCCN)n3cc(CC(C)O)nn3)CC2)n1 (stereo not given in full)	inconclusive: 25.1 µM [inhibitor, single point]
CN(C)c1ccc(/C=C2\CCC/C(=C\c3ccccc3)C2=O)cc1	inconclusive: 25.1 µM [inhibitor, partial curve, poor fit]
COc1ccc(N=C2S/C(=C\c3ccc(OCC(=O)O)cc3)C(=O)N2CCc2c[nH]c3ccccc23)cc1	inconclusive: 7.94 µM [inhibitor, full curve, poor fit]
CCOC(=O)c1c(NC(=O)c2nc(SCC)ncc2Cl)sc(C(C)=O)c1C	inactive
COc1ccc(/C=C/C(=O)c2ccc3c(c2)OCCO3)cc1[N+](=O)[O-]	inconclusive: 12.6 µM [inhibitor, partial curve]
COc1ccc(NC(=O)c2cc3c(-c4ccc(OC)c(OC)c4)nn(C)c3s2)cc1OC	inconclusive: 14.1 µM [inhibitor, full curve, poor fit]
CC(=O)c1ccc(N2CCN(C(=O)CCCn3c(=S)[nH]c4cc5c(cc4c3=O)OCO5)CC2)cc1	inconclusive: 28.2 µM [inhibitor, partial curve]
COc1ccccc1NS(=O)(=O)c1cc(NC(=O)c2ccc3c(c2)OCCO3)ccc1C	inconclusive: 79.4 µM [inhibitor, partial curve]

Reprinted at random: 3 entries already listed.
Structure (SMILES)	Potency
COc1ccc(S(=O)(=O)N2CCN(C(=O)CCCN3C(=O)NC4(CCCC4)C3=O)CC2)cc1	inactive
CCOC(=O)CC1(NC(=O)c2cc(COc3c(F)cccc3F)on2)CCCCC1	inconclusive: 79.4 µM [inhibitor, partial curve]
COc1ccc(/C=C/C(=O)c2ccc3c(c2)OCCO3)cc1[N+](=O)[O-]	inconclusive: 12.6 µM [inhibitor, partial curve]

(more compounds)

Structure (SMILES)	Potency
O=C(CN1CC(=O)Oc2ccccc21)OCC(=O)c1ccccc1	inconclusive: 35.5 µM [inhibitor, partial curve, poor fit]
O=C(O)/C=C/C(=O)Nc1ccc(Cc2ccc(NC(=O)/C=C/C(=O)O)cc2)cc1	inactive
CC1(C)Cc2c(cnn2-c2cccc(F)c2)C(NC(=O)c2ccc[n+]([O-])c2)C1 (stereo not given)	inconclusive: 100 µM [inhibitor, single point]
O=C(NC(NC(=S)Nc1ccccc1C(=O)O)C(Cl)(Cl)Cl)c1ccccc1 (stereo not given)	inactive
CCCn1nnnc1SCC(=O)NNC(=O)c1ccco1	inconclusive: 79.4 µM [inhibitor, single point]
CCCC(=O)N1CCN(c2nc3ccc(F)cc3s2)CC1	inconclusive: 10 µM [inhibitor, partial curve, poor fit]
O=C1C(Cl)=C(N2CCOCC2)C(=O)N1c1ccccc1Cl	inconclusive: 56.2 µM [inhibitor, partial curve, poor fit]
Cc1c(C(=O)OCCOc2ccc(Br)cc2)sc(=S)n1C	inactive
CC1CCN(C(=O)COC(=O)CNC(=O)c2ccccc2F)CC1	inconclusive: 100 µM [inhibitor, partial curve, poor fit]
c1ccn2c(Cc3nnc4ccccn34)nnc2c1	inconclusive: 56.2 µM [inhibitor, single point]
CC(=O)Nc1ccc(NC(=O)CSc2ccc(-c3sc(C)nc3C)nn2)cc1	inconclusive: 28.2 µM [inhibitor, partial curve]
CCOc1ccc(NC(=O)c2nc(S(=O)(=O)Cc3ccc(F)cc3)ncc2Cl)cc1	inactive
C=CC(=O)Oc1ccc(N2Cc3ccccc3C2=O)cc1	active: 39.8 µM
CCc1ccc(S(=O)(=O)Nc2nccs2)cc1	inconclusive: 35.5 µM [inhibitor, single point]
O=C(NC(NC(=S)Nc1cccc(Cl)c1)C(Cl)(Cl)Cl)OCc1ccccc1 (stereo not given)	inconclusive: 39.8 µM [inhibitor, single point]
COc1ccc(CCNC(=O)c2cc3c(=O)n(C)c4ccccc4c3n2C)c(OC)c1	inconclusive: 39.8 µM [inhibitor, single point]
CC(CNC(=O)Cn1ccc(NC(=O)OCc2ccccc2)nc1=O)c1ccccc1 (stereo not given)	inconclusive: 100 µM [inhibitor, single point]
CCOC(=O)c1scc(-c2ccc(C)cc2)c1S(=O)(=O)Nc1cc(OC)ccc1OC	inconclusive: 89.1 µM [inhibitor, partial curve, poor fit]
O=C(Nc1nccs1)c1cc(-c2ccco2)nc2ccccc12	active: 22.4 µM
CCCCN(C)C(=O)c1ccc2c(c1)N(Cc1cccc(F)c1)C(=O)c1ccccc1S2	inconclusive: 79.4 µM [inhibitor, single point]
CCOc1cc(C#N)c(-n2nnc3c(sc4nc(C)cc(C)c43)c2=O)cc1OCC	inconclusive: 1.26 µM [inhibitor, full curve, poor fit]
